These results are taken from PMC3079739.

Chains of the proteins cited; added tags and fusions are not shown. Lines headed by an entry give the natural chain unless they say otherwise; changes in a name come on top. Residues count along the entry.
UniProt P01555: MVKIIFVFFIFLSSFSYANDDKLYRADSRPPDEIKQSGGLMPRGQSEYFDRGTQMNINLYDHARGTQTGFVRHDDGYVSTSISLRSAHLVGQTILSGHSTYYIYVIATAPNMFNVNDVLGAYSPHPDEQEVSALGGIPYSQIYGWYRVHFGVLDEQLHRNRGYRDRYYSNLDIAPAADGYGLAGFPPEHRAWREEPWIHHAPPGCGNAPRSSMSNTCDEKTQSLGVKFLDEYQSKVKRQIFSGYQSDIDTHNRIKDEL
UniProt P07237, residues 18-508: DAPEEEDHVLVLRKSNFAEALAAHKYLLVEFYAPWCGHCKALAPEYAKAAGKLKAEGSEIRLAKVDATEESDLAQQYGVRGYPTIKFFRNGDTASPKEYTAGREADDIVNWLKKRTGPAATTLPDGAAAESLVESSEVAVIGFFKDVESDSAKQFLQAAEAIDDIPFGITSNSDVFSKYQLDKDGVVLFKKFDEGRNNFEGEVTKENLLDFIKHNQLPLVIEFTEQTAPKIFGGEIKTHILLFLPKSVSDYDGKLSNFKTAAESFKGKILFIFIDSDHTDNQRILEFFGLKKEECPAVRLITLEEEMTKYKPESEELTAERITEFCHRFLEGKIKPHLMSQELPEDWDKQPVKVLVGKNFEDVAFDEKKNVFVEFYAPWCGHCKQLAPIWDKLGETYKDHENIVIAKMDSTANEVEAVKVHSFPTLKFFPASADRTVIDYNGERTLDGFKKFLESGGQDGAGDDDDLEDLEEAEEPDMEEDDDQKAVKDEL

These are yes or no findings as the source states them, for the method shown. Some results given as binding are weak or reduced against the parent protein; the word gives no strength.

The target of the assay is Cholera toxin (CT) holotoxin (Vibrio cholerae) (UniProt P01555). The assay is described as follows: SPR; both purified.

For “protein disulfide isomerase (PDI), reduced (from UniProt P07237 18-508) (enzyme)”, the binding result was “binds”.
